# Results reported in US5731411.
# Key:
# [1] = target: WECO (RecA 193-212 F203W peptide) (Escherichia coli) (UniProt P0A7G8); assay: binding assay; conditions: CD, beta structure, 278 nm band reduced, pH 6.0; synthetic protein; protein details: synthetic peptide, HPLC purified; single-stranded DNA
# [2] = target: FECO (RecA residues 193-212 peptide) (Escherichia coli) (UniProt P0A7G8); assay: filter binding; conditions: 10 mM MgCl2, pH 8.3, room temp; less tight without Mg; no distinct dsDNA unstacking; synthetic protein; protein details: synthetic peptide, HPLC purified; label: 5' 32P on BS-S1
# [3] = target: WECO (RecA 193-212 F203W peptide) (Escherichia coli) (UniProt P0A7G8); assay: filter binding; conditions: 10 mM MgCl2, pH 8.3, synthetic protein, protein details: synthetic peptide, HPLC purified
# RecA = RecA (UniProt P0A7G6); assay: footprint; conditions: permanganate hypermodification; 10 mM MgCl2, ATPgammaS, ADP, 37 C; also forms joint molecules (Example 5); purified recombinant protein; label: 5' 32P; single-stranded DNA
sequence,measurement,setting,value
CTGTCTACTCTCGAGGTTAACCCGTGCGAATTCTACGATTGGTGCGGCCGGTATATC [57-mer ssDNA],binding result,[1],binds
GGCCGCTCTAGAACTAGTGGATCCCCCGGGCTGCAGGAATTCGATATCAAGCT / AGCTTGATATCGAATTCCTGCAGCCCGGGGATCCACTAGTTCTAGAGCGGCC [BS-S1/BS-S2 duplex],binding result,[2],binds
same,binding result,"[3]; less tight without Mg, label: 5' 32P on BS-S1",binds
GGCCGCTCTAGAACTAGTGGATCCCCCGGGCTGCAGGAATTCGATATCAAGCT [BS-S1 ssDNA],activity on this sequence,RecA,active
same,binding result,"[3]; higher DNA affinity than FECO, unstacks ssDNA, forms joint molecules (Example 5), label: 5' 32P, single-stranded DNA",binds

# For some assays here: For at least one entry, the source does not settle the construct or the ends of the probe.
